Amino acid sequences for entries named in this document (tags omitted).
UniProt Q0JBA9, entry or part of it: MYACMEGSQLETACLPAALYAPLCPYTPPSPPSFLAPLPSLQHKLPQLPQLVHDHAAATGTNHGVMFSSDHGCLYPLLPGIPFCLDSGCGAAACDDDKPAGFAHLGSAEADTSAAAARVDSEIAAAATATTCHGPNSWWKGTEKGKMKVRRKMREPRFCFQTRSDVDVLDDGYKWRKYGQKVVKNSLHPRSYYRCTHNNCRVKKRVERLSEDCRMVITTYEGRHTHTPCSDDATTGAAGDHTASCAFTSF

The other results are listed elsewhere or left out.
What follows are sequences tested against OsWRKY34 (Oryza sativa, UniProt Q0JBA9 1-250) (assay: protein-binding microarray (RPBM); PBS, 2% BSA, 51.3 ng/ul salmon testes DNA, 50 uM zinc acetate, 200 nM TF, 25 C, 1 h; high values mean tight binding). Conditions: protein: recombinant; tags: N-terminal polyhistidine and DsRed monomer fusion (pET32a); label: CyDye5-dUTP incorporated in the synthesized complementary strand; 3' TTTTT single-stranded linker to array surface; dsDNA, one strand shown.
Outline: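 The binding signal is fluorescence intensity per array feature (arbitrary units). Readings came from an Axon 4000B scanner after a washed, 2% BSA-blocked, double-stranded custom Agilent array had been incubated for 1 h at 25 °C with 200 nM protein and 50 µM zinc acetate. The protein was a Ni–NTA-purified transcription factor fused N-terminally to polyhistidine and DsRed, expressed in E. coli BL21-CodonPlus.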
“ATTCACTTTTGGGCCTGTTCAAGGGAAACTCTTTTAATCACGGAGTCACCTAGTGCAG” was tested, and the binding signal was 8680 fluorescence intensity (a.u.).
With “CACTGCCCGCCCGCCCCGCGCTGCTGCCGCCGCCTCCTGGCGGAGTCACCTAGTGCAG” the binding signal was 9480 fluorescence intensity (a.u.).
“TACCTGTCTACGATTTGCCACTGACTTTATCACGTTCTACCGGAGTCACCTAGTGCAG” was tested, and the binding signal was 10500 fluorescence intensity (a.u.).
In the case of “CATGTGTAACCATTGCTCTTTACCCAAACAGCATTTGTCTCGGAGTCACCTAGTGCAG”, the binding signal is reported as 9400 fluorescence intensity (a.u.).
“TCCCATCCCATTCCGTTGCGAAATTTTTGCGAGCTCGCGACGGAGTCACCTAGTGCAG” was tested, and the binding signal was 8790 fluorescence intensity (a.u.).
“GTATTCCGATAAATTTTCGTTATCGTATCCGTGCCGGTTCCGGAGTCACCTAGTGCAG” was tested, and the binding signal was 11300 fluorescence intensity (a.u.).
With “ATTCTCATGCTACTCTTGCACAAACCCTAGCTCATATGGTCGGAGTCACCTAGTGCAG” the binding signal was 12200 fluorescence intensity (a.u.).
“GTACTTGTTTCTCTCTGTTTCAGTACGGTTCTGGGCCGAACGGAGTCACCTAGTGCAG” was tested, and the binding signal was 10100 fluorescence intensity (a.u.).
In the case of “TGCAGTGCGGCGTCACCTATCTCGTGGGCGCTTTCTTAGACGGAGTCACCTAGTGCAG”, the binding signal is reported as 9080 fluorescence intensity (a.u.).
For “AGACAAAATAAGTTTCTTACTCTTACTCTCTCAGTTTCAACGGAGTCACCTAGTGCAG”, the binding signal was 8470 fluorescence intensity (a.u.).
“ACTTGCTGACCCCTCGTCCTCGTCATCGTCCGCCCTATGTCGGAGTCACCTAGTGCAG” was tested, and the binding signal was 9960 fluorescence intensity (a.u.).
In the case of “GGCAAGAACCGAAACACGTCCCTTTCATTGTGCCACACTCCGGAGTCACCTAGTGCAG”, the binding signal is reported as 9380 fluorescence intensity (a.u.).
“TATCTTCTCTTATTTCAACGCTGTTTCCTTCTCTTTGTTTCGGAGTCACCTAGTGCAG” was tested, and the binding signal was 10400 fluorescence intensity (a.u.).
With “TCTTTTCTTTTCTTTTCTTTTTTCCTTTCCCATCCACTACCGGAGTCACCTAGTGCAG” the binding signal was 8730 fluorescence intensity (a.u.).
“TCTCCGCCAACCATCCCGCCACGTCAACCACCTTTCCATCCGGAGTCACCTAGTGCAG” was tested, and the binding signal was 11000 fluorescence intensity (a.u.).
With “CGTAGCTGTGTTTGTAGCGTAATTGCGTAAAGTCCTTTCACGGAGTCACCTAGTGCAG” the binding signal was 8180 fluorescence intensity (a.u.).
In the case of “CCACACCAATAGCACAACCGGCAAACAATTCCTCTGCTCGCGGAGTCACCTAGTGCAG”, the binding signal is reported as 8510 fluorescence intensity (a.u.).
For “GTTTCCCAGCACCTCTCGCTCGGTTCGTCGTCGCCCGCCCCGGAGTCACCTAGTGCAG”, the binding signal was 8140 fluorescence intensity (a.u.).
For “CCCTCTTGCTGTAGGGTGATCTCGTCTGTGTTCCCTTGTTCGGAGTCACCTAGTGCAG”, the binding signal was 12000 fluorescence intensity (a.u.).
“GTCCTCTCCCATCTTGCTTCTTCTGATTACGCGGCGAAACCGGAGTCACCTAGTGCAG” was tested, and the binding signal was 9560 fluorescence intensity (a.u.).
With “GAGTCGCGCACACACCTCGACTCCTCGCTCGCTTCACTCCCGGAGTCACCTAGTGCAG” the binding signal was 9340 fluorescence intensity (a.u.).
In the case of “TTTAATTTACCCATTGATCTAGCTCGCGATATATATGATCCGGAGTCACCTAGTGCAG”, the binding signal is reported as 8640 fluorescence intensity (a.u.).
For “GTTATAGATACTTTACATGCCAGATCTTCTGCTACTCACACGGAGTCACCTAGTGCAG”, the binding signal was 8430 fluorescence intensity (a.u.).
For “AAAAATGGCGTTTTCTCTCCATTTTCCACGTCATCATGGTCGGAGTCACCTAGTGCAG”, the binding signal was 9470 fluorescence intensity (a.u.).
For “ATCCCTACCAATGAGTTAACTCACTTTTATTGGTACATATCGGAGTCACCTAGTGCAG”, the binding signal was 8370 fluorescence intensity (a.u.).
With “CTCACGCGCTGCACCGCCGATACCCCACCCGCTGCTAGTTCGGAGTCACCTAGTGCAG” the binding signal was 8670 fluorescence intensity (a.u.).
For “TAATAGTTGGTCACGTCATATCCATTGCATGCAGCTCATCCGGAGTCACCTAGTGCAG”, the binding signal was 9730 fluorescence intensity (a.u.).
For “TAATTACCTCTCTTTAGTTTTGGGGTATGTGTGCTTGGTTCGGAGTCACCTAGTGCAG”, the binding signal was 9680 fluorescence intensity (a.u.).
For “GAAGGGATTGGGTGAAATTACAGGGGCATGTAGGTAATTGCGGAGTCACCTAGTGCAG”, the binding signal was 10000 fluorescence intensity (a.u.).
For “AAACATGTGCTAAAAAGTCAACGGTGTCAAATATTTCGAACGGAGTCACCTAGTGCAG”, the binding signal was 15600 fluorescence intensity (a.u.).
For “ACTCCTCTCTCTGCTTCGTTTTCATCTTCAGGGCAATGGCCGGAGTCACCTAGTGCAG”, the binding signal was 10100 fluorescence intensity (a.u.).
For “TTTTTCTTATGTTTTGTAATAATCTGTTTTGCACACGCATCGGAGTCACCTAGTGCAG”, the binding signal was 8740 fluorescence intensity (a.u.).
With “ATGTCTTTTGGTGGGTGAGAAATTATTTCCTTAACCCATTCGGAGTCACCTAGTGCAG” the binding signal was 8890 fluorescence intensity (a.u.).
In the case of “CATCTGAGTACCTCACATGTTGAACATCTCCCTGTACTTACGGAGTCACCTAGTGCAG”, the binding signal is reported as 8980 fluorescence intensity (a.u.).
With “TACTTCTCGTTTTTTCTTTATCTTTTACTTTCACATAAATCGGAGTCACCTAGTGCAG” the binding signal was 9950 fluorescence intensity (a.u.).
For “TTTTCTTTTTTGCCTTTGTTTGTCCCATTTTTGTTGGGTTCGGAGTCACCTAGTGCAG”, the binding signal was 12600 fluorescence intensity (a.u.).
“ATTCCTATATTTTTCCTATGTTTTGTAATCCTCTGTTTTACGGAGTCACCTAGTGCAG” was tested, and the binding signal was 12600 fluorescence intensity (a.u.).
For “TGTGTGTTATGAGTAGCTTGTGGTATGGATTCTTCTGAAGCGGAGTCACCTAGTGCAG”, the binding signal was 9960 fluorescence intensity (a.u.).
“AACCTTGTACTGTGCCATCTTGTGCAATGCCATTGATGTTCGGAGTCACCTAGTGCAG” was tested, and the binding signal was 9180 fluorescence intensity (a.u.).
“ACCCAAAATTTTCTTTTCGCGAACTAAACAGGCCCTTAATCGGAGTCACCTAGTGCAG” was tested, and the binding signal was 9000 fluorescence intensity (a.u.).
With “GCGCGCCAACTAACGTACACCCACCCGCTCATCTATATAACGGAGTCACCTAGTGCAG” the binding signal was 9170 fluorescence intensity (a.u.).
With “TTTTGCGGGATTTCTTGGCCTTTGTGTCTGGGATTCGTGGCGGAGTCACCTAGTGCAG” the binding signal was 9430 fluorescence intensity (a.u.).
“GAAAGCGAGCAAGCAGCATCTCTCTTTGTTCTTTTCTTAACGGAGTCACCTAGTGCAG” was tested, and the binding signal was 9390 fluorescence intensity (a.u.).
“CCGTTCTCTCATCTCTGCTTTCCAGTGCTTCCATCAACAACGGAGTCACCTAGTGCAG” was tested, and the binding signal was 8740 fluorescence intensity (a.u.).
“TTCTCGAAAATCCTAGCTGCCTGCAAGTTTTCTTTCTTTGCGGAGTCACCTAGTGCAG” was tested, and the binding signal was 8710 fluorescence intensity (a.u.).
“TCGACGGCGCCACCACAATCGTGGTCCACCGTGACAAGCCCGGAGTCACCTAGTGCAG” was tested, and the binding signal was 8840 fluorescence intensity (a.u.).
In the case of “GCCATCCTCCGCGACGCACATCGTCCGTCCCACCACGATGCGGAGTCACCTAGTGCAG”, the binding signal is reported as 10400 fluorescence intensity (a.u.).
With “CAAACGATCACCATAGTTGTCATCCTCTGTCACCATAGTTCGGAGTCACCTAGTGCAG” the binding signal was 8360 fluorescence intensity (a.u.).
For “CTAGGGAGTGACGGCGGAGGTGGTGGGGTCAAGTTCAAGACGGAGTCACCTAGTGCAG”, the binding signal was 10700 fluorescence intensity (a.u.).
In the case of “AGTATTTTTTCCCATCTGGTCAATTGATGTATCGAATCTTCGGAGTCACCTAGTGCAG”, the binding signal is reported as 8080 fluorescence intensity (a.u.).
For “GATCACCTCAGAGCTGGCTGCCCTATTTGTTTTTGCAGCCCGGAGTCACCTAGTGCAG”, the binding signal was 10100 fluorescence intensity (a.u.).
For “GCTCCCATGATGCGCTCTCGCCGCCTCGCCATGTGACCCGCGGAGTCACCTAGTGCAG”, the binding signal was 8810 fluorescence intensity (a.u.).
For “TCCTCATTGAACCATTCCGCCTCGCTCCCAGCTCCATTACCGGAGTCACCTAGTGCAG”, the binding signal was 11300 fluorescence intensity (a.u.).
“CTCCATTCTTGTTTGTTCCTTCTTTGCTTTCAGCTGCTTTCGGAGTCACCTAGTGCAG” was tested, and the binding signal was 15000 fluorescence intensity (a.u.).
